Reference: patent US20240199696A1, “AGENTS FOR MANUFACTURE OF CO-ASSEMBLING PEPTIDES” (University of Florida Research Foundation, Incorporated, priority 2021, published 2024)
Some entries repeat one wording, which the source may state once for all of them.

Assay: In vitro particle formation with crowding agents, inverted fluorescence microscopy
Assay type: physicochemical
Settings: 30 μM CATCH(4+) and 30 μM CATCH(6−)-GFP, crowder 20 wt %, 15 minutes
In the case of `C[C@H](CCC(=O)NCCC[N+](C)(C)CCCS(=O)(=O)[O-])[C@H]1CC[C@H]2[C@@H]3[C@H](O)C[C@@H]4C[C@H](O)CC[C@]4(C)[C@H]3C[C@H](O)[C@]12C` [CHAPS, (3-((3-cholamidopropyl)dimethylammonio)-1-propanesulfonate)], the “particle formation by crowding agent” value is reported as “unsuccessful in inducing particle formation”.
For `CCCCCCCCCCCCOS(=O)(=O)[O-].[Na+]` [SDS, sodium dodecylsulfate], the “particle formation by crowding agent” value was “unsuccessful in inducing particle formation”.
In the case of `C[C@H](CCC(=O)[O-])[C@H]1CC[C@H]2[C@@H]3CC[C@@H]4C[C@H](O)CC[C@]4(C)[C@H]3C[C@H](O)[C@]12C.[Na+]` [deoxycholate, deoxycholate sodium], the “particle formation by crowding agent” value is reported as “unsuccessful in inducing particle formation”.
For “Polyoxyethylene (20) sorbitan monolaurate [Tween 20]”, the “particle formation by crowding agent” value was “induce particle formation”.
With “Polyoxyethylene (20) sorbitan monooleate [Tween 80]” the “particle formation by crowding agent” value was “induce particle formation”.
For benzalkonium chloride, the “particle formation by crowding agent” value was “unsuccessful in inducing particle formation”.

Same assay, conditions: CATCH(4+) with CATCH(6−)-GFP, 15 minutes
For “Ac-QQKFKFKFKQQ-Am (N-acetyl; C-amide; CATCH (4+)) [CATCH(4+)]”, the “effect of increasing concentration on particle size” value was “increased particle size”.

Same assay, conditions: combined with CATCH(6−)-GFP and Tween 20, 15 minutes
In the case of “Ac-EQEFEFEFEQE-Am (N-acetyl; C-amide; CATCH (6-)) [CATCH(6−)]”, the “particle formation by peptide” value is reported as “not able induce particle formation”.
With “Ac-QQKFKFKFKQQ-Am (N-acetyl; C-amide; CATCH (4+)) [CATCH(4+)]” the “particle formation by peptide” value was “successfully induced particle formation”.
For “Ac-QQKPKPKPKQQ-Am (N-acetyl; C-amide; a mCATCH(+) (a mutant CATCH(+) peptide)) [mCATCH (4+)]”, the “particle formation by peptide” value was “not able induce particle formation”.
For KQKFKFKFKQK (CATCH (6+)), the “particle formation by peptide” value was “successfully induced particle formation”.
